Results taken from patent US20260021181A1, “CHIMERIC COSTIMULATORY RECEPTORS, CHEMOKINE RECEPTORS, AND THE USE OF SAME IN CELLULAR IMMUNOTHERAPIES” (Iovance Biotherapeutics, Inc., priority 2022, published 2026).
These are yes or no findings as the source states them, for the method shown. Some binding calls cover weakened binding; strength is not graded here.

The chains behind the UniProt entries cited, without tags or fusion partners.
UniProt Q9NZQ7: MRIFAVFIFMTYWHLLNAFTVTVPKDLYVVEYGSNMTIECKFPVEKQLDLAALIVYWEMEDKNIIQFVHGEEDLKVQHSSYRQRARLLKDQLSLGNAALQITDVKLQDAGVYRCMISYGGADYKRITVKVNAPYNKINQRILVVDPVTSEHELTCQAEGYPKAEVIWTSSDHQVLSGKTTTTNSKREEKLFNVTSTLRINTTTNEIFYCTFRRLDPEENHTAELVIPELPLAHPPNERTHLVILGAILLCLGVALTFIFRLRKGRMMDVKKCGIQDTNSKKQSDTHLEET

Target: biotin conjugated PD-L1 protein (UniProt Q9NZQ7)
Assay: transduced HEK-IL-18 reporter cells stained with biotinylated antigen and fluorescent streptavidin

- binding: binds
B1: biepitope CCR8 (38A1scFv-CD28TM-IL-18R1-T2A-19H9scFv-CD28TM-IL-18RAP) (receptor)
chain 1: SYVLTQPPSVSVAPGQTARITCGGNNIGRKIVHWYQQRPGQAPVLVIYYDTDRPAGIPERFSGSNSGNMATLTISTVGAGDEADYYCQVWDTGSDHVVFGGGTKLTVLGGGGSGGGGSGGGGSGGGGSEVQLVESGGGLVQPGGSLRLSCAASGFTFSNYAMSWVRQAPGKGLEWVSTISGSGGTTYYADSVKGRFTISRDNSKNTLYLQMNSLRVEDTAVYYCAKDWFRSSSPDAFDIWGQGTTVTVSAIEVMYPPPYLDNEKSNGTIIHVKGKHLCPSPLFPGPSKPFWVLVVVGGVLACYSLLVTVAFIIFWVYRVDLVLFYRHLTRRDETLTDGKTYDAFVSYLKECRPENGEEHTFAVEILPRVLEKHFGYKLCIFERDVVPGGAVVDEIHSLIEKSRRLIIVLSKSYMSNEVRYELESGLHEALVERKIKIILIEFTPVTDFTFLPQSLKLLKSHRVLKWKADKSLSYNSRFWKNLLYLMPAKTVKPGRDEPEVLPVLSESGSGEGRGSLLTCGDVEENPG
chain 2: NFMLTQPHSVSESLGKTVTISCTGSSGSIARKFVQWYQQRPGSSPTTVIYENNQRPSGVSDRFSGSIGSSSNSASLTISGLKTEDEADYYCQSYDSSNVVFGGGTKVTVLGGGGSGGGGSGGGGSGGGGSQVQLQESGGGLVKPGGSLRLSCAASGFTFSSYSMNWVRQAPGKGLEWVSGINTAGDTHYPESVKGRFTISRDNARNSLNLQMNSLRAEDTAVYYCVRERVEREYSGYDAFDIWGQGTTVTVSAIEVMYPPPYLDNEKSNGTIIHVKGKHLCPSPLFPGPSKPFWVLVVVGGVLACYSLLVTVAFIIFWVSALLYRHWIEIVLLYRTYQSKDQTLGDKKDFDAFVSYAKWSSFPSEATSSLSEEHLALSLFPDVLENKYGYSLCLLERDVAPGGVYAEDIVSIIKRSRRGIFILSPNYVNGPSIFELQAAVNLALDDQTLKLILIKFCYFQEPESLPHLVKKALRVLPTVTWRGLKSVPPNSRFWAKMRYHMPVKNSQGFTWNQLRITSRIFQWKGLSRTETTGRSSQPKEW
